Experimental data: PubChem BioAssay AID1224830 (NIAID, 2016)
Aim: 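Genes whose knock-down alters the TNF-alpha reporter response to LPS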 (primary screen). System: human THP-1 monocytic leukaemia cells, TNF dual-luciferase reporter clone, PMA-differentiated to macrophage-like cells. Reagent: siRNA pool against human genes, 50 nM. Duration: LPS for 4 h, given about 3 days after siRNA transfection. Treatment: bacterial LPS (TLR4 ligand), 10 ng/ml. Read-out: 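TNF firefly reporter luminescence divided by renilla, normalised to the plate median, then turned into a robust z-score for each replicate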. Direction: TNF reporter robust z-score: higher = stronger TNF reporter response to LPS. Call rule: 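Each well counts as active if its z-score is over 2.8 or under -1.5; controls are left without a call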.
Here is one part, drawn at random, of about 18,000 reagents tested. In the full data, about 2,900 (16%) are marked active. 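Calls are made per well; low scores hint the gene aids the LPS response, high scores that it dampens it.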 Repeated entries: four replicate wells of each siRNA pool. Reagent sequences are not shown.

TNF reporter robust z-score | activity call | target gene
1.35 | inactive | YIPF1
0.22 | inactive | YIPF1
0.39 | inactive | YIPF1
0.48 | inactive | YIPF1
1.35 | inactive | LIPJ
-0.15 | inactive | LIPJ
1.34 | inactive | LIPJ
1.09 | inactive | LIPJ
-0.34 | inactive | ADIPOR2
-0.4 | inactive | ADIPOR2
0.22 | inactive | ADIPOR2
1.54 | inactive | ADIPOR2
-0.65 | inactive | CPT2
-0.04 | inactive | CPT2
0.3 | inactive | CPT2
-0.97 | inactive | CPT2
0.47 | inactive | MED28
-0.59 | inactive | MED28
-0.33 | inactive | MED28
0.14 | inactive | MED28
-2.05 | active | SPRR1B
-1.98 | active | SPRR1B
-2.07 | active | SPRR1B
-1.83 | active | SPRR1B
2.09 | inactive | HOXA11
0.9 | inactive | HOXA11
1.31 | inactive | HOXA11
1.92 | inactive | HOXA11
-2.01 | active | POMP
-1.93 | active | POMP
-1.29 | inactive | POMP
-1.5 | inactive | POMP
-0.48 | inactive | PIAS1
1.32 | inactive | PIAS1
-0.03 | inactive | PIAS1
0.14 | inactive | PIAS1
-0.79 | inactive | CHRNA2
0.44 | inactive | CHRNA2
-0.3 | inactive | CHRNA2
1.54 | inactive | CHRNA2
-0.67 | inactive | KLHL8
-0.17 | inactive | KLHL8
-1 | inactive | KLHL8
-1.32 | inactive | KLHL8
0.82 | inactive | CENPX
0.24 | inactive | CENPX
0.72 | inactive | CENPX
-0.15 | inactive | CENPX
0.35 | inactive | RAB15
0.85 | inactive | RAB15
1.22 | inactive | RAB15
1.3 | inactive | RAB15
1.4 | inactive | NUDT14
1.59 | inactive | NUDT14
-0.32 | inactive | NUDT14
0.17 | inactive | NUDT14
0.17 | inactive | SPC24
1.54 | inactive | SPC24
0.2 | inactive | SPC24
0.68 | inactive | SPC24
1.5 | inactive | DRP2
0.4 | inactive | DRP2
-1.09 | inactive | DRP2
1.09 | inactive | DRP2
1.84 | inactive | FUNDC1
0.31 | inactive | FUNDC1
0.53 | inactive | FUNDC1
-1.99 | active | FUNDC1
-1.73 | active | ZNF319
-1.53 | active | ZNF319
-1.59 | active | ZNF319
-1.68 | active | ZNF319
1.48 | inactive | MOB4
0.65 | inactive | MOB4
0.04 | inactive | MOB4
1.4 | inactive | MOB4
– | inactive | FAM20A
-0.66 | inactive | FAM20A
-1.13 | inactive | FAM20A
-0.49 | inactive | FAM20A
-0.4 | inactive | FAM20A
-1.5 | inactive | YPEL5
-1.42 | inactive | YPEL5
-1.19 | inactive | YPEL5
-1.35 | inactive | YPEL5
0.06 | inactive | HOXD4
-0.51 | inactive | HOXD4
-0.48 | inactive | HOXD4
1.23 | inactive | HOXD4
0.32 | inactive | SZRD1
-1.36 | inactive | SZRD1
-1.47 | inactive | SZRD1
-0.16 | inactive | SZRD1
-0.87 | inactive | HSPA2
-0.36 | inactive | HSPA2
0.17 | inactive | HSPA2
-0.41 | inactive | CYP2C19
-0.97 | inactive | CYP2C19
-0.98 | inactive | CYP2C19
0.28 | inactive | CYP2C19
-0.87 | inactive | CADPS2
-0.59 | inactive | CADPS2
-0.39 | inactive | CADPS2
0.27 | inactive | CADPS2
-1.08 | inactive | VAX2
-1.17 | inactive | VAX2
-0.72 | inactive | VAX2
-0.08 | inactive | VAX2
0.44 | inactive | BSND
-0.5 | inactive | BSND
0.46 | inactive | BSND
0.89 | inactive | BSND
-1.4 | inactive | EEF1AKMT3
-0.59 | inactive | EEF1AKMT3
-1.24 | inactive | EEF1AKMT3
-0.66 | inactive | EEF1AKMT3
2.02 | inactive | C1orf220
1.3 | inactive | C1orf220
1.81 | inactive | C1orf220
0.62 | inactive | C1orf220
-0.91 | inactive | SLIRP-OT1
-1.03 | inactive | SLIRP-OT1
0.19 | inactive | SLIRP-OT1
-1.27 | inactive | AP4B1
-1.11 | inactive | AP4B1
-1.01 | inactive | AP4B1
-0.91 | inactive | AP4B1
-1.08 | inactive | CLIP1
-0.95 | inactive | CLIP1
-1.16 | inactive | CLIP1
0.08 | inactive | CLIP1
-0.12 | inactive | C3orf36
-0.16 | inactive | C3orf36
-0.09 | inactive | C3orf36
0.82 | inactive | C3orf36
0.46 | inactive | CDT1
0.28 | inactive | CDT1
0.17 | inactive | CDT1
0.08 | inactive | CDT1
1.45 | inactive | PCGF3
0.87 | inactive | PCGF3
0.2 | inactive | PCGF3
-0.48 | inactive | PCGF3
